Data on one sequence can be found in paper PMC10208894, “The SmNPR4-SmTGA5 module regulates SA-mediated phenolic acid biosynthesis in Salvia miltiorrhiza hairy roots”.

The series has as its system T1, SmTGA5 (Salvia miltiorrhiza).
T1 sequence (looked up, limits assumed): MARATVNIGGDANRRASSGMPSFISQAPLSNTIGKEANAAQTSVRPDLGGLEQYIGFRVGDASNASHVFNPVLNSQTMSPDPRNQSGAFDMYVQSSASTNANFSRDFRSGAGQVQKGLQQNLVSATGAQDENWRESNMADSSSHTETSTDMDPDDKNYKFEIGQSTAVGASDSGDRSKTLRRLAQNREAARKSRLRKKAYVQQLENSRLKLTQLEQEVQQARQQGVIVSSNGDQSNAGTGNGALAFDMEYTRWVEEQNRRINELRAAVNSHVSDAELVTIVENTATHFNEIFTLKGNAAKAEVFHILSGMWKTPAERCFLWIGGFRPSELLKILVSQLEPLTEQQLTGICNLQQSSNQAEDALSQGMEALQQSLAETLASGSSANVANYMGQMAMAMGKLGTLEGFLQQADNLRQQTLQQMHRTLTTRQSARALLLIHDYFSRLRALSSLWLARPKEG
Kind of series: EMSA. The note with it: SmNPR4 (P2) added, attenuates SmTGA5 binding; Beyotime GS009 EMSA kit, 20-25 C, 20 min, acrylamide gel; salt and pH not stated; recombinant protein; protein details: His (pET32a, N-terminal fusion). For orientation: In EMSA bound probe runs differently from free probe, usually more slowly.

For at least one entry, the source does not settle the construct or the ends of the probe. Weaker means in comparison with the reference protein, sequence or condition of that experiment. Tags and fusion partners may be left off the protein sequences shown.

As to “TTTAAAGTGACGTGTATCATTTAAAGTGACGTGTATCATTTAAAGTGACGTGTATCA (double strand) [Probe-pTAT1 (3x as-1)]”, the binding result is reported as “binds more weakly”.
